Laboratory results taken from patent US8227516B2, “Compounds as histone deacetylase inhibitors” (4SC Discovery GmbH, priority 2002, dated 2012).
Some of these results come from one statement about several compounds together. Some ranges recur; such a range may be that of the whole group of compounds.

Assays:
BV-173 cells = assay: Measurement of apoptosis, FACS sub-G1 by propidium iodide staining; format: cell-based; conditions: 24 hours
Source text: Measurement of Apoptosis. FACS analysis of the cell cycle by propidium iodide (PI) staining. The cell cycle can be divided into four different sections: During G0/1-phase cells are in senescence or proliferate, in S-phase cells start replicating their DNA, and during G2- and M-phase cells undergo mitosis. […] Degradation of DNA is a marker for apoptosis. The sub-G1 area indicates the hypodiploid DNA peak corresponding to cells with fragmented DNA undergoing apoptosis Using a dye that intercalates with DNA (such as propidium iodide—PI) the cellular DNA content was determined. Between 5×10^5-1×10^6 cells were seeded out in cell culture dishes and treated for the desired time with the desired amount of test compound. After the incubation cells were harvested, washed in cold PBS, and the cell pellet was resuspended in 1 ml 70% ethanol (−20° C.). These cell pellets may be shelved for several month.
For PI staining 3 ml cold sodium citrate solution (38 mM, pH 7.4) was added, cells were pelleted and stained with 500 μl sodium citrate solution (38 mM, pH 7.4) containing 50 μg/ml PI and 5 μg/ml RNase. After a 30 minute incubation time at 37° C. in darkness, cells were analyzed via FACS analysis. The sub-G1-peak constitutes the amount of apoptotic cells.

[1] = test system: HDAC-dependent transcriptional repression in reporter cell line UAS TK-luc (293T cells); assay: Transcriptional reporter gene assay (UAS TK luciferase, Gal4-repressor fusion); format: cell-based; conditions: at 200 μM, 24 hours
Procedure: Depicted is the fold induction of luciferase expression after treatment of cells at the indicated concentrations of Compounds 1, 2 and 3.
Transcriptional reporter gene assay. The transcriptional assay for repressor activity exploits activation and derepression of a Gal4-dependent reporter gene (Hildebrand et al., 2001, J Biol Chem 276, 9889-95; Maurer et al., 2002, Blood 99, 2647-52). This assay is performed with specifically constructed permanent cell lines. 293T cell were stably transfected with a UAS TK luciferase reporter plasmid (Heinzel et al., 1997 Nature 387, pp 43-48) and an expression plasmid for the Gal4 DNA binding domain fused to an HDAC-dependent repressor molecule. While Gal4 fusion proteins repress this activity, HDAC inhibitors induce relief of this repression which can be detected as an increase in reporter gene activity (e.g. by luciferase activity detection assay).
Addition of Compounds 1, 2 and 3 relieve this repression as measured by increased expression and activity of luciferase in lysates of treated cells after 24 hours. Both, Compound 1 and 2 induce luciferase reporter gene expression after stimulation of cells for 24 hours starting at a concentration of 8 μM (2-3 fold) with a maximum induction of more than 20 fold at 200 μM. […]

Row | SMILES | sub-G1 area (apoptotic cells) (BV-173 cells; at 100 μM) | maximum induction of luciferase reporter gene expression [1] | sub-G1 area (apoptotic cells) (BV-173 cells; at 50 μM) | sub-G1 area (apoptotic cells) (BV-173 cells; at 5 μM)
1 | O=C(CCC1CCCC1)NO [Compound 1, 3-Cyclopentyl-N-hydroxy-propionamide] | 50-60% | more than 20 fold | – | –
2 | O=C(CCC1CCCCC1)NO [Compound 2, 3-Cyclohexyl-N-hydroxy-propionamide] | – | more than 20 fold | 50-60% | –
3 | O=C(C=CC1CCCCC1)NO [Compound 3, 3-Cyclohexyl-N-hydroxy-acrylamide] | – | – | – | 50-60%
